Laboratory results published in US10175229B2, “Rapid method for measuring cytotoxicity in non-RI system” (NAGASAKI UNIVERSITY, priority 2014, dated 2019).

Test system: Histiocytoma U937 cells
Test: Spontaneous and maximum release of labeled compound, time-resolved fluorometric assay (Eu assay)
Format: cell-based
Conditions: 25 μM compound, maximum release divided by spontaneous release (%)
Experimental: Histiocytoma U937 cells were cultured in 30 mL of RPMI1640 medium under the conditions of 37° C., 5% CO2 overnight, the culture medium (30 mL) was placed in a 50 mL conical tube, and the cell number was counted. After centrifugation at 1700 rpm at 4° C. for 5 min, the supernatant was removed, and the cell pellets were resuspended in RPMI1640 medium at 1×10^6 cells/mL. To the cell suspension (1 mL) in a 15 mL conical tube was added 2.5 μL of a compound represented by the formula (I) or a salt thereof (10 mM stock solution) (final concentration: 25 μM), and the mixture was incubated under the conditions of 37° C., 5% CO2 for 15 min. The cells were washed 3 times with 5 mL of RPMI1640 medium, and resuspended in 5 mL of RPMI1640 medium. The cell suspension (2 mL) was placed in a 15 mL conical tube containing 6 mL of RPMI1640 medium to adjust the cell concentration to 5×10^3 cells/100 μL. The cell suspension (100 μL) was seeded in 6 wells of a 96 flat bottom plate. 100 μL of RPMI1640 medium was added to wells for determining the amount of spontaneous release, and 90 μL of RPMI1640 medium was added to wells for determining the amount of maximum release. The plates were centrifuged at 500 rpm, room temperature for 2 min and incubated under 37° C., 5% CO2 condition for 30 min. A newly-prepared 0.125% digitonin solution in 19% DMSO (mixed solution of 3 mg digitonin, 0.456 mL DMSO and 1.944 mL H2O) (10 μL) was added to the aforementioned wells for determining the amount of maximum release, mixed well and further incubated for 30 min. After incubation, the cell suspension was mixed well again, and centrifuged at 1700 rpm, room temperature for 2 min. After the centrifugation, the supernatant (25 μL) was carefully transferred into wells containing 250 μL of europium solution in a 96 flat bottom plate, and 200 μL of the solution thereof was placed in a 96-well flat bottom plate.
The plate was allowed to stand for 15 min, and the time-resolved fluorescence was measured by ARVO multiplate reader.

Row | Compound | labeled molecule advantage Index (B/C)
1 | CC(=O)OCOC(=O)c1cccc(-c2cccc(-c3cccc(C(=O)OCOC(C)=O)n3)n2)n1 [BATDA, bis(acetoxymethyl) 2,2′:6′,2″-terpyridine-6,6″-dicarboxylate, reference compound] | 5091
2 | CCCC(=O)OCOC(=O)c1cccc(-c2cc(OCCO)cc(-c3cccc(C(=O)OCOC(=O)CCC)n3)n2)n1 [Example 1, bis(butyryloxymethyl) 4′-(2-hydroxyethoxy)-2,2′:6′,2″-terpyridine-6,6″-dicarboxylate] | 6775
3 | CCCNC(=O)COc1cc(-c2cccc(C(=O)OCOC(C)=O)n2)nc(-c2cccc(C(=O)OCOC(C)=O)n2)c1 [Example 2, bis(acetoxymethyl) 4′-(2-oxo-2-(propylamino)ethoxy)-2,2′:6′,2″-terpyridine-6,6″-dicarboxylate] | 5170
4 | CC(=O)OCOC(=O)c1cccc(-c2cc(OCCO)cc(-c3cccc(C(=O)OCOC(C)=O)n3)n2)n1 [Example 3, bis(acetoxymethyl) 4′-(2-hydroxyethoxy)-2,2′:6′,2″-terpyridine-6,6″-dicarboxylate] | 9841
5 | CCCC(=O)OCOC(=O)c1cccc(-c2cc(OCC=O)cc(-c3cccc(C(=O)OCOC(=O)CCC)n3)n2)n1 [Example 4, bis(butyryloxymethyl) 4′-(2-oxyethoxy)-2,2′:6′,2″-terpyridine-6,6″-dicarboxylate] | 5204
6 | CCC(=O)OCOC(=O)c1cccc(-c2cc(OCCO)cc(-c3cccc(C(=O)OCOC(=O)CC)n3)n2)n1 [Example 5, bis(propionyloxymethyl) 4′-(2-hydroxyethoxy)-2,2′:6′,2″-terpyridine-6,6″-dicarboxylate] | 8889
7 | CCCC(=O)OCOC(=O)c1cccc(-c2cc(OCCCO)cc(-c3cccc(C(=O)OCOC(=O)CCC)n3)n2)n1 [Example 6, bis(butyryloxymethyl) 4′-(3-hydroxypropoxy)-2,2′:6′,2″-terpyridine-6,6″-dicarboxylate] | 11174
8 | CCCC(=O)OCOC(=O)c1cccc(-c2cc(OCCOCCO)cc(-c3cccc(C(=O)OCOC(=O)CCC)n3)n2)n1 [Example 7, bis(butyryloxymethyl) 4′-(2-(2-hydroxyethoxy)ethoxy)-2,2′:6′,2″-terpyridine-6,6″-dicarboxylate] | 6594
9 | CC(=O)OCOC(=O)c1cccc(-c2cc(CO)cc(-c3cccc(C(=O)OCOC(C)=O)n3)n2)n1 [Example 9, bis(acetoxymethyl) 4′-(hydroxymethyl)-2,2′:6′,2″-terpyridine-6,6″-dicarboxylate] | 7671
